These results are taken from doi:10.1101/2025.02.06.636805.

Sequences of proteins named here, by UniProt entry; tags and fusion partners are left off. Residues count along the entry.
UniProt Q9UGP4: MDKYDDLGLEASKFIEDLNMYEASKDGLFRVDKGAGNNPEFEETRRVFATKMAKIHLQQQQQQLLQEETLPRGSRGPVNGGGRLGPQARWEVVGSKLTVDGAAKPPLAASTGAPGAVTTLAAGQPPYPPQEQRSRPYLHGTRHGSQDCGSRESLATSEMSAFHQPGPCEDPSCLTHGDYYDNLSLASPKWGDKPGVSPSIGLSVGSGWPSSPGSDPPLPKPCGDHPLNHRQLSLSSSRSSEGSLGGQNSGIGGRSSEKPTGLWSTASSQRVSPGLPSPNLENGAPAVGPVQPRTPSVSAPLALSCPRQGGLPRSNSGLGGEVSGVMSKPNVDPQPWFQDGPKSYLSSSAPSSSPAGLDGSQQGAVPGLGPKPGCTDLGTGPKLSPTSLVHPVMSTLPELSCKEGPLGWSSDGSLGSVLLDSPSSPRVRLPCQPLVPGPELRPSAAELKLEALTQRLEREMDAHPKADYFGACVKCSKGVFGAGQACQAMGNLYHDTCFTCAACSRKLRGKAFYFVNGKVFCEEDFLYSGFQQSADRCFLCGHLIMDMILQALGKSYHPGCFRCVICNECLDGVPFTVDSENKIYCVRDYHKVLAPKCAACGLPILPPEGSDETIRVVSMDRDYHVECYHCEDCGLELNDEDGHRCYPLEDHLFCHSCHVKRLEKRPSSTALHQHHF
UniProt Q9NZQ7, residues 19-290: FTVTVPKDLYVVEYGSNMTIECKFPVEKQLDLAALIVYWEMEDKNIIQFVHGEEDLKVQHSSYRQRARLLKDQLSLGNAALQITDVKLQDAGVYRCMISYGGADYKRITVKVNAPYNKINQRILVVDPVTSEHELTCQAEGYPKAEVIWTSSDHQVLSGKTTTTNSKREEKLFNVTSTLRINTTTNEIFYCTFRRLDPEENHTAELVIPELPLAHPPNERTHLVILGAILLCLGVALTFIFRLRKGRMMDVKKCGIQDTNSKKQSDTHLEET
UniProt Q9Y4X5: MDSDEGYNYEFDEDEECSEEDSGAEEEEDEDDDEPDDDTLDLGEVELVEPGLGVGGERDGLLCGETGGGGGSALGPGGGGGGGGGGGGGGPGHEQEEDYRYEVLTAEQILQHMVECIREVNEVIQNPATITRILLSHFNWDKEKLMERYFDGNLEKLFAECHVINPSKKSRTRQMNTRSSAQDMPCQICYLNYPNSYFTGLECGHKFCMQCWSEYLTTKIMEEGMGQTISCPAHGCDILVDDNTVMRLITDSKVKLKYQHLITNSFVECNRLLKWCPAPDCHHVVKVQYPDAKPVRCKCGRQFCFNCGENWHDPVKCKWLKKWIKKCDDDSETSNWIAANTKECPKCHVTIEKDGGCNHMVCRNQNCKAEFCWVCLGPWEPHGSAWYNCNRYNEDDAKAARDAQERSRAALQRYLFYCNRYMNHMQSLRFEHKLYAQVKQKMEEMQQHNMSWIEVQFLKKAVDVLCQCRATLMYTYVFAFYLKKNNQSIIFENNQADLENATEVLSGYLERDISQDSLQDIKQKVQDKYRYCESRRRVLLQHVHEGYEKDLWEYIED

These are yes or no findings as the source states them, for the method shown. Binding seen in cells or lysates may run through a third protein. Some results given as binding are weak or reduced against the parent protein; the word gives no strength.

In assay [1] the target is LIMD1 (human (endogenous in A549)) (UniProt Q9UGP4). Description: co-IP.
The target in a further assay is HA-PD-L1 (UniProt Q9NZQ7). Description: co-IP.

For “ARIH1 (from UniProt Q9Y4X5 1-557) (enzyme)”, the binding result (in assay [1]; in the assay with HA-PD-L1) was “binds” in each case.
